# In the supplement of paper PMC10849652:
# Chains of the proteins cited; added tags and fusions are not shown. Lines headed by an entry give the natural chain unless they say otherwise; changes in a name come on top.
# UniProt Q96KB5: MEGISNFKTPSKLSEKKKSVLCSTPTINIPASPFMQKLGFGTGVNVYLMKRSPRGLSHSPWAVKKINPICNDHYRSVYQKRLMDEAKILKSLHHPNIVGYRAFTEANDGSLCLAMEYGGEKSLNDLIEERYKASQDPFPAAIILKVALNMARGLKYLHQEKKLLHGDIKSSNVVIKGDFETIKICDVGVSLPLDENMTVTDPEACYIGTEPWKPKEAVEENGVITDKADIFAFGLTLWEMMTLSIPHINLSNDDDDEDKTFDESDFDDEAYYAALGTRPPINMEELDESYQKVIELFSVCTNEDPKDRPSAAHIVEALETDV
# UniProt Q9H792: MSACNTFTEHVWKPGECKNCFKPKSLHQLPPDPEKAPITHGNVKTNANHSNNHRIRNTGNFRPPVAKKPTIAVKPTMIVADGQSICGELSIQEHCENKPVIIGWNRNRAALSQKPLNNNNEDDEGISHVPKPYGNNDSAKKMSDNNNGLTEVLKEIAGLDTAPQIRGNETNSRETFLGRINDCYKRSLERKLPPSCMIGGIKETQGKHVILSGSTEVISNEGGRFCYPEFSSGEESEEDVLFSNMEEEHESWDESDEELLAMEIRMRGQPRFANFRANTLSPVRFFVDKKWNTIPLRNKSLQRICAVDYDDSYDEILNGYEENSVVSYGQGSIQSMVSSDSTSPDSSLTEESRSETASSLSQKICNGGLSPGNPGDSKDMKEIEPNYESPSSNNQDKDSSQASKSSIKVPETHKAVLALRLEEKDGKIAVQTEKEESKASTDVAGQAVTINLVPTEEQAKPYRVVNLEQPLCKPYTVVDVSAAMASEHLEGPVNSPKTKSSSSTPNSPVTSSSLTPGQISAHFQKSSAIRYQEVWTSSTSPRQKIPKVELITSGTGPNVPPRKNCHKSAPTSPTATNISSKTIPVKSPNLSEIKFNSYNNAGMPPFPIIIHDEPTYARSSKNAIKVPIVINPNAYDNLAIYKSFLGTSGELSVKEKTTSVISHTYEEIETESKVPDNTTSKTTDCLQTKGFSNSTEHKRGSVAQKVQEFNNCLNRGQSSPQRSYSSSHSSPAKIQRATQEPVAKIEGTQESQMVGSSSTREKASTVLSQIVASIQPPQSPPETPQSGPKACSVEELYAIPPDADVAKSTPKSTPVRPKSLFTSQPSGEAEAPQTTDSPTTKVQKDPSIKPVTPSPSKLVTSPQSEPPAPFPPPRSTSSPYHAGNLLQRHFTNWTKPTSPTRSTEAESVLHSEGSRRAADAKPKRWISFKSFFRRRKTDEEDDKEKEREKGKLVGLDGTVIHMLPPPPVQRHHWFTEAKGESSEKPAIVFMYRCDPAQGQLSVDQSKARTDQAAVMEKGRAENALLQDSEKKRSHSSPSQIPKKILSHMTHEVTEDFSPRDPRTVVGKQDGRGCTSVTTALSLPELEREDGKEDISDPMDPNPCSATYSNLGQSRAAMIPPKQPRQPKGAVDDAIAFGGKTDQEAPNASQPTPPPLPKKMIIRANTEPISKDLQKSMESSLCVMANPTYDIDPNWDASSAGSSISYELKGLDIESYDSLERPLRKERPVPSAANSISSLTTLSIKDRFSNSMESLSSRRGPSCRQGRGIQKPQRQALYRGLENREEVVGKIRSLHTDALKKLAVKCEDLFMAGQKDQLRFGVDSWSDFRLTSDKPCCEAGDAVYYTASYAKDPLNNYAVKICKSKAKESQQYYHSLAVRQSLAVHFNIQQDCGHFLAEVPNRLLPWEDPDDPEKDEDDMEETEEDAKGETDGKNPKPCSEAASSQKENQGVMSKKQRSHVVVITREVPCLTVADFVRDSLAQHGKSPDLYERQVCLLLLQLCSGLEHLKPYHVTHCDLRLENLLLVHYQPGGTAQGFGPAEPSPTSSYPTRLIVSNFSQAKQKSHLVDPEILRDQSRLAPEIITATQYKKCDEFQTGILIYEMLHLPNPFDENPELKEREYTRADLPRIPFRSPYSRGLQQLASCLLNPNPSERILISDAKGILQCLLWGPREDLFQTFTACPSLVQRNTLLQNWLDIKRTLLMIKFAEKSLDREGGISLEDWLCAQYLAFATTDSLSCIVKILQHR
# UniProt P28328: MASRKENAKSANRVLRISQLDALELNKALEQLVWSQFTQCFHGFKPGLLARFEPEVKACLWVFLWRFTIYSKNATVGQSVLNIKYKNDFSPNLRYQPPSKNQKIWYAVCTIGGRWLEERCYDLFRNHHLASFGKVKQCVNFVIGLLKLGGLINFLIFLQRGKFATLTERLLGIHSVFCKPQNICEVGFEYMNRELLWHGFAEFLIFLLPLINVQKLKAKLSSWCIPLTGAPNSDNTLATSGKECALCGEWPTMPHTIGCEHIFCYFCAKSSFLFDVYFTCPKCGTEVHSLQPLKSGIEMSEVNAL
# UniProt Q9UBM1: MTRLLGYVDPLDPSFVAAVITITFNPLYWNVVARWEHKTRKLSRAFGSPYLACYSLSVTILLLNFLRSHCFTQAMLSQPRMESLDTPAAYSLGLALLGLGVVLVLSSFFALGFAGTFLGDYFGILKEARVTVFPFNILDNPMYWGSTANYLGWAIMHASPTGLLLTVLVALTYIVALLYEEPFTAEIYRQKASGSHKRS
# UniProt Q9UHV9, whole entry, looked up: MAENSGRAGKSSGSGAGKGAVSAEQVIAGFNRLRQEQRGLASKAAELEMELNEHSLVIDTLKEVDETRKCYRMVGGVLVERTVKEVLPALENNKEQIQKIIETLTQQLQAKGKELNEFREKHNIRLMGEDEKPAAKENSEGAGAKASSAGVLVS
# UniProt O15055: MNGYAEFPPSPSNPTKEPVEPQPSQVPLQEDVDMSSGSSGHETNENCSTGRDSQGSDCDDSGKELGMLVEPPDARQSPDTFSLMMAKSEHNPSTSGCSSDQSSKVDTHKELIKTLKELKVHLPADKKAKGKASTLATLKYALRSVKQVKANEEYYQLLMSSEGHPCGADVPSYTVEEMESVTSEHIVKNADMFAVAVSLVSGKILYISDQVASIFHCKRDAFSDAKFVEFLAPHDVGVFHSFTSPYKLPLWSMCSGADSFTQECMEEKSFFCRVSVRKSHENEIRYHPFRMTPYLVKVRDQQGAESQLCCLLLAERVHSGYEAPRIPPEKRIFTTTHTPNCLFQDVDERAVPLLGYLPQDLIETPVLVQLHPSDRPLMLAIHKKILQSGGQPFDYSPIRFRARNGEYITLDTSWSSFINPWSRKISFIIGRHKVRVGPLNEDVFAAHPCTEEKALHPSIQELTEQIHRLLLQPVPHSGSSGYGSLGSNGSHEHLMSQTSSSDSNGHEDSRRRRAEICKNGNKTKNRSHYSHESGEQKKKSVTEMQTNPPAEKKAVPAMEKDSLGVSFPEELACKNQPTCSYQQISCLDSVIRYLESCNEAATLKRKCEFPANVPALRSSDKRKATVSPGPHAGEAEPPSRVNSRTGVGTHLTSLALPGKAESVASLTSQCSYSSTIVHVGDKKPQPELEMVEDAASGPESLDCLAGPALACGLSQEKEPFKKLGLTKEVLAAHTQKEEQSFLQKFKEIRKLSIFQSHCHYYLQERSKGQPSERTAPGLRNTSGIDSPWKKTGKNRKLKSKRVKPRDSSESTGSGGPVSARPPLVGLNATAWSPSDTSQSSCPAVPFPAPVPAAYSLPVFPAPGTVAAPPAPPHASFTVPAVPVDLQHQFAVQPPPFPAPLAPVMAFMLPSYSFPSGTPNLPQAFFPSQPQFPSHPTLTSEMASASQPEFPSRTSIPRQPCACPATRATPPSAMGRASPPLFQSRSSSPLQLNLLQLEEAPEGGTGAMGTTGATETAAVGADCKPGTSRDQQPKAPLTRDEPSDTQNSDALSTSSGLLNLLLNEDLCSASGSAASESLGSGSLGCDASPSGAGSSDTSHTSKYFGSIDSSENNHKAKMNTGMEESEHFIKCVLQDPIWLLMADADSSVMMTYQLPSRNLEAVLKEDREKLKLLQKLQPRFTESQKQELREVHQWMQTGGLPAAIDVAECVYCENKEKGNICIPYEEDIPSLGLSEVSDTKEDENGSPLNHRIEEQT
# UniProt P30086: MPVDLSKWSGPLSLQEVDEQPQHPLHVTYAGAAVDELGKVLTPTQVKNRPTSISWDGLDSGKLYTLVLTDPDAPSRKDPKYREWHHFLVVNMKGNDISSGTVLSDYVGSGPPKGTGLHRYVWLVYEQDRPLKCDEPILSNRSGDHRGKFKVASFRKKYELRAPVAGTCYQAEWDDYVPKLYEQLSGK
# UniProt Q9BYE7: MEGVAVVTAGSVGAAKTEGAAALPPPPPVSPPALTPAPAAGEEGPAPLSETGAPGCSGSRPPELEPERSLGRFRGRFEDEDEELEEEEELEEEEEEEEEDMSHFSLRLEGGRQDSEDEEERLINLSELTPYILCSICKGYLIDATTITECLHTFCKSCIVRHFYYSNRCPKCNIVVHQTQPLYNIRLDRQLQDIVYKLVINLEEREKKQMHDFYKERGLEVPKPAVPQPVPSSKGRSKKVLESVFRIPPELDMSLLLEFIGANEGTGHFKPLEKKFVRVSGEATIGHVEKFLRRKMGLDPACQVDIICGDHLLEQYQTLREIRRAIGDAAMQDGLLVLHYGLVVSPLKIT
# UniProt Q460N5, whole entry, looked up: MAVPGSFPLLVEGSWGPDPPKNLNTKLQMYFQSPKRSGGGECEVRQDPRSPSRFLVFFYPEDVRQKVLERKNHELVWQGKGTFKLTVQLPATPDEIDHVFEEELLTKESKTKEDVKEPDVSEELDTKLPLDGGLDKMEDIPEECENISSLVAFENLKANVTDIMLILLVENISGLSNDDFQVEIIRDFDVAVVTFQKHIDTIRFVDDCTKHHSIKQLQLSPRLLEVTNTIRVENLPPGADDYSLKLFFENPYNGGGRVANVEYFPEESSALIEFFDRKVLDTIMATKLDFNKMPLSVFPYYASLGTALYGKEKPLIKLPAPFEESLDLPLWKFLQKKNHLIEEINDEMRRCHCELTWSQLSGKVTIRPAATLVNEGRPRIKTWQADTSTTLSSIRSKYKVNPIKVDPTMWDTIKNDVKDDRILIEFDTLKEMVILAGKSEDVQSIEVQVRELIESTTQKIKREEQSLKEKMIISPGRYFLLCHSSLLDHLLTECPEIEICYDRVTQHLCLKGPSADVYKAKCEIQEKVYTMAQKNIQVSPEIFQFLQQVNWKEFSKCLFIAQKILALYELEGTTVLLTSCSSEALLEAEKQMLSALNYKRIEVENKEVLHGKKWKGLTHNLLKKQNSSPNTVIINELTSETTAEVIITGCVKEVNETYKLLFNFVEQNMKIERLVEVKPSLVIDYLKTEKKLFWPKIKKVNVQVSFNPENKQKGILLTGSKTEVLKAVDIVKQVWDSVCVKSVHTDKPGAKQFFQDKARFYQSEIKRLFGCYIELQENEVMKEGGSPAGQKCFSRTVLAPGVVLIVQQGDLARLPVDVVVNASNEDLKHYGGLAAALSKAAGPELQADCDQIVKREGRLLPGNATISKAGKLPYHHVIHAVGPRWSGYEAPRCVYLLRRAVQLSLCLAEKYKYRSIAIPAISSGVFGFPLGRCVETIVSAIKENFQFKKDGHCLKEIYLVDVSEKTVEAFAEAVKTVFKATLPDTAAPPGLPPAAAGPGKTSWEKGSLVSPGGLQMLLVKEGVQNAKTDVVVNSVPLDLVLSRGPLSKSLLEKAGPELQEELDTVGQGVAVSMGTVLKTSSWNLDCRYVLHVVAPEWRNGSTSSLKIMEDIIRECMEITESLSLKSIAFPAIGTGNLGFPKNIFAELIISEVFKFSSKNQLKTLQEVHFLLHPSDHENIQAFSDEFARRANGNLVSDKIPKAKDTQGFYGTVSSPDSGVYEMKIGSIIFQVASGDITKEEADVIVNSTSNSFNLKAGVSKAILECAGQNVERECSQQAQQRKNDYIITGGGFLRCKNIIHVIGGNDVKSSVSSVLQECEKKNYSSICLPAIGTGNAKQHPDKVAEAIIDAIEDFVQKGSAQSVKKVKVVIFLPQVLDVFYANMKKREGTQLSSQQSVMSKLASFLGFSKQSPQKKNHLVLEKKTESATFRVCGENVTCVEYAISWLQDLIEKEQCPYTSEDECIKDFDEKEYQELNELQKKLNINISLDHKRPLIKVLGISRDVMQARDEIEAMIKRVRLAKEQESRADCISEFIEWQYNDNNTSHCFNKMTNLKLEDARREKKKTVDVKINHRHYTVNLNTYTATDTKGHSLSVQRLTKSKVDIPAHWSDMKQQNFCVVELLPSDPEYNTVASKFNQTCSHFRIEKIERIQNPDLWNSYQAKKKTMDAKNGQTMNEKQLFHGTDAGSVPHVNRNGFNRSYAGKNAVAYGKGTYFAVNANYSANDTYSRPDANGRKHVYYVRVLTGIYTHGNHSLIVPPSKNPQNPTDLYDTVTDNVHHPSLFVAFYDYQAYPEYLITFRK
# UniProt Q9HBH1: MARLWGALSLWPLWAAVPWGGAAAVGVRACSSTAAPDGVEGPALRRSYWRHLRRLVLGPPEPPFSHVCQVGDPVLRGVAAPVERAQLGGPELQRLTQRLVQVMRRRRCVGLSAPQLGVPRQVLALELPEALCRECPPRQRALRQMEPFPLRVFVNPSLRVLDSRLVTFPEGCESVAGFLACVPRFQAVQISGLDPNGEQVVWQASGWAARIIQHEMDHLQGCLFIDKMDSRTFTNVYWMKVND
# The list shows a part of the results.
# Experiments:
# Assay in all cases: log2 fold change, soluble protein after heating vs DMSO (PISA); higher = thermal stabilisation; K562 lysate, 10 uM; active = over 0.2 and 3.5 SD of the protein, either way, in both replicates (recomputed)
# [1] = compound: NCC(=O)Nc1ccc(-n2nc(C(F)(F)F)cc2-c2ccc3c(ccc4ccccc43)c2)cc1
# Procedure, shortened: (§1)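 Dounce homogenisation of K562 pellets in PBS pH 7.4 with 1 mM MgCl2 produced a crude extract, used at 1 mg/mL protein. Exposure to 10 μM compound lasted 30 min, and aliquots were then heated for 3 min across 48°C-58°C, pooled and brought to 0.5% NP-40 at 4°C. The supernatant after 21,000xg for 90 min was quantified by TMTpro 16plex LC-MS/MS with channel sums equalised. Duplicate values are given as log-two fold change in thermal stability relative to solvent controls.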
# vorinostat = compound: O=C(CCCCCCC(=O)Nc1ccccc1)NO [vorinostat]
# Procedure, shortened: as §1
# silmitasertib = compound: O=C(O)c1ccc2c(c1)nc(Nc1cccc(Cl)c1)c1ccncc12 [silmitasertib]
# Procedure, shortened: as §1
# [2] = compound: O=C1NC(=O)C(c2cnc3ccccn23)=C1c1cn2c3c(cc(F)cc13)CN(C(=O)N1CCCCC1)CC2
# Procedure, shortened: as §1
# entospletinib = compound: c1cn2cc(-c3ccc4cn[nH]c4c3)nc(Nc3ccc(N4CCOCC4)cc3)c2n1 [entospletinib]
# Procedure, shortened: as §1
Target,log2 fold change [1],log2 fold change (vorinostat),log2 fold change (silmitasertib),log2 fold change [2],log2 fold change (entospletinib)
PELP1 (UniProt Q8IZL8),inactive: 0.099,inactive: 0.094,inactive: 0.007,inactive: 0.032,inactive: -0.076
PEF1 (UniProt Q9UBV8),inactive: -0.186,active: 0.467,inactive: -0.005,inactive: -0.008,inactive: -0.009
PBK (UniProt Q96KB5),inactive: -0.029,active: -0.269,inactive: 0.013,inactive: -0.021,inactive: 0.035
PGGHG (UniProt Q32M88),inactive: -0.011,inactive: 0.026,inactive: -0.045,inactive: -0.035,inactive: 0
PCNT (UniProt O95613),inactive: 0.011,inactive: -0.012,inactive: -0.018,inactive: -0.029,inactive: -0.028
PCF11 (UniProt O94913),inactive: 0.043,active: -0.339,inactive: -0.023,inactive: -0.001,inactive: 0.016
PET100 (UniProt P0DJ07),inactive: 0.008,inactive: 0.131,inactive: 0.019,inactive: -0.02,inactive: -0.163
PDE8A (UniProt O60658),inactive: -0.113,inactive: -0.505,inactive: -0.04,inactive: 0.019,
PDLIM1 (UniProt O00151),inactive: -0.002,inactive: 0.097,inactive: -0.011,inactive: 0.013,inactive: 0.016
PECAM1 (UniProt P16284),inactive: -0.031,inactive: 0.117,inactive: -0.03,inactive: 0.068,inactive: -0.069
PEAK1 (UniProt Q9H792),inactive: 0.068,inactive: -0.054,inactive: -0.224,inactive: -0.029,
PARN (UniProt O95453),inactive: -0.041,inactive: 0.006,inactive: -0.002,inactive: -0.002,inactive: -0.016
PDE4DIP (UniProt E9PS60),inactive: 0.002,inactive: -0.157,inactive: 0.082,inactive: 0.039,inactive: 0.103
PARP16 isoform 3 (UniProt Q8N5Y8),inactive: -0.124,inactive: -0.137,inactive: 0,inactive: 0.034,inactive: -0.01
PEX2 (UniProt P28328),inactive: -0.055,inactive: -0.25,inactive: 0.042,inactive: 0.043,
PEPD (UniProt P12955),inactive: -0.003,inactive: 0.139,inactive: 0,inactive: 0.024,inactive: 0.083
PCBD1 (UniProt P61457),inactive: 0.033,inactive: 0.133,inactive: -0.012,inactive: -0.036,inactive: -0.01
PEMT isoform 2 (UniProt Q9UBM1),inactive: -0.257,,,,
PCYT1A (UniProt P49585),inactive: 0.032,inactive: 0.023,inactive: -0.012,inactive: -0.124,inactive: 0.055
PCBP3 (UniProt P57721),inactive: 0.016,active: -0.371,inactive: 0.001,inactive: -0.001,inactive: 0.016
PGAM1 (UniProt P18669),inactive: -0.019,inactive: 0.114,inactive: -0.019,inactive: -0.006,inactive: -0.006
PCK1 (UniProt P35558),inactive: 0.201,,,,
PFKFB3 isoform 4 (UniProt Q16875),inactive: 0.025,active: -0.34,inactive: 0.108,inactive: 0.017,inactive: -0.006
PFDN2 (UniProt Q9UHV9),inactive: -0.049,inactive: 0.098,inactive: 0.015,inactive: -0.068,inactive: 0.007
PFN1 (UniProt P07737),inactive: -0.006,inactive: 0.083,inactive: -0.004,inactive: -0.014,inactive: 0.006
PDXP (UniProt Q96GD0),inactive: 0.008,inactive: 0.118,inactive: 0.026,inactive: 0.017,inactive: -0.028
PDSS2 (UniProt Q86YH6),inactive: -0.079,inactive: 0.011,inactive: 0.029,inactive: 0.044,
PGD (UniProt P52209),inactive: 0.036,inactive: 0.075,inactive: 0.004,inactive: -0.015,inactive: -0.002

Target,log2 fold change [1],log2 fold change (vorinostat),log2 fold change (silmitasertib),log2 fold change [2],log2 fold change (entospletinib)
PCYOX1L (UniProt Q8NBM8),inactive: 0.029,inactive: 0.048,inactive: 0.001,inactive: -0.031,inactive: -0.014
PBX2 (UniProt P40425),inactive: 0.007,inactive: -0.096,inactive: 0.014,inactive: -0.014,inactive: 0.019
PFKL isoform 2 (UniProt P17858),inactive: 0.014,inactive: -0.044,inactive: -0.03,inactive: 0.03,inactive: 0.09
PCSK9 (UniProt Q8NBP7),inactive: -0.047,inactive: 0.075,inactive: -0.027,inactive: 0.025,inactive: -0.001
PDHB (UniProt P11177),inactive: -0.02,inactive: -0.084,inactive: 0.037,inactive: 0.024,inactive: -0.001
PGAM5 (UniProt Q96HS1),inactive: -0.013,inactive: -0.008,inactive: -0.008,inactive: -0.035,inactive: 0.005
PCYT2 isoform 3 (UniProt Q99447),inactive: 0.012,inactive: -0.168,inactive: 0.019,inactive: -0.005,inactive: 0.04
PDXK (UniProt O00764),inactive: -0.005,inactive: 0.073,inactive: -0.008,inactive: 0.026,inactive: -0.009
PER2 (UniProt O15055),inactive: -0.032,,,,
PEBP1 (UniProt P30086),inactive: -0.012,inactive: 0.156,inactive: -0.008,inactive: 0.02,inactive: 0.008
PCIF1 (UniProt Q9H4Z3),inactive: -0.018,inactive: -0.011,inactive: 0.112,inactive: 0.036,inactive: 0.085
PCGF6 (UniProt Q9BYE7),inactive: 0.069,inactive: -0.288,inactive: 0.028,inactive: -0.045,
PFDN6 (UniProt O15212),inactive: -0.065,inactive: 0.156,inactive: -0.026,inactive: 0.049,inactive: -0.02
PDCD6IP isoform 2 (UniProt Q8WUM4),inactive: -0.001,active: -0.473,inactive: 0.019,inactive: -0.006,inactive: 0.018
PES1 (UniProt O00541),inactive: 0.03,inactive: -0.193,inactive: 0.037,inactive: 0.014,inactive: -0.015
PCK2 (UniProt Q16822),inactive: 0.013,inactive: -0.127,inactive: -0.048,inactive: -0.059,inactive: 0.015
PCMTD2 (UniProt Q9NV79),inactive: -0.216,inactive: -0.119,inactive: -0.006,inactive: -0.045,inactive: 0.168
PEA15 isoform 2 (UniProt Q15121),inactive: -0.061,inactive: 0.143,inactive: -0.038,inactive: 0.011,inactive: -0.011
PFDN1 (UniProt O60925),inactive: -0.048,inactive: 0.192,inactive: -0.003,inactive: 0.033,inactive: -0.089
PDIA6 isoform 2 (UniProt Q15084),inactive: 0.012,inactive: 0.07,inactive: 0.013,inactive: 0.002,inactive: -0.005
PARP14 (UniProt Q460N5),inactive: -0.006,active: -0.391,inactive: 0.009,inactive: 0.149,inactive: -0.014
PCM1 (UniProt Q15154),inactive: 0.018,inactive: -0.045,inactive: 0.032,inactive: 0.015,inactive: 0
PCMT1 isoform 2 (UniProt P22061),inactive: -0.009,inactive: -0.023,inactive: 0.004,inactive: 0.006,inactive: 0.006
PDCD10 (UniProt Q9BUL8),inactive: -0.009,inactive: 0.158,inactive: -0.001,inactive: -0.037,inactive: 0.011
PDZD11 isoform 2 (UniProt Q5EBL8),inactive: -0.029,inactive: 0.069,inactive: -0.109,inactive: -0.026,inactive: -0.048
PDF (UniProt Q9HBH1),inactive: -0.095,inactive: -0.232,inactive: 0.044,inactive: 0,inactive: -0.004
PCCB (UniProt P05166),inactive: 0.01,inactive: 0.062,inactive: 0.001,inactive: -0.013,inactive: 0.005

# Single records, as listed above. Values in the order: log2 fold change [1]	log2 fold change (vorinostat)	log2 fold change (silmitasertib)	log2 fold change [2]	log2 fold change (entospletinib)
# PCYT2 isoform 3 (UniProt Q99447) reads inactive: 0.012	inactive: -0.168	inactive: 0.019	inactive: -0.005	inactive: 0.04
# PCSK9 (UniProt Q8NBP7) reads inactive: -0.047	inactive: 0.075	inactive: -0.027	inactive: 0.025	inactive: -0.001
# PFDN6 (UniProt O15212) reads inactive: -0.065	inactive: 0.156	inactive: -0.026	inactive: 0.049	inactive: -0.02
# PCK2 (UniProt Q16822) reads inactive: 0.013	inactive: -0.127	inactive: -0.048	inactive: -0.059	inactive: 0.015
